PubChem BioAssay AID1259415 (National Center for Advancing Translational Sciences (NCATS), 2018)
About 18,000 (4.4%) of roughly 410,000 compounds were called active. This list was built around the results that the source calls inconclusive (neither active nor inactive); the mix of calls is not that of the screen. No stated cut-off is given here; in the data, active means activity change below about -60%; inconclusive means no clear call, values can overlap the other calls; inactive means above about -39%.

Experiment: qHTS Assay for inhibitors of the human cytomegalovirus (HCMV)
Conditions: HFF cells, HCMV-luciferase reporter, 72 h; at 57.5 µM; active compounds read low
Outline: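 Inhibition of viral replication was scored as loss of reporter luminescence in HFFs infected with HCMV-luciferase (MOI 1 PFU/cell) for 72 h; compounds tested at 2 doses, normalized to buffer and Salinomycin controls.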
On the % scale 0 is the no-effect control and ±100 the full control effect.

SMILES	activity change, negative = inhibition
COc1cccc(/C=N/Nc2nc3ccccc3[nH]2)c1O	active: -99.2%
CN[C@H]1C[C@H]2c3[nH]c4ccc(-c5ccc(OC)cc5)cc4c3CCN2C(=O)[C@H]1[C@H](C)O	active: -103%
CCC(C)n1c(O)c(/C=N/Nc2ccccc2)c(=O)[nH]c1=S (configuration not stated)	active: -79.9%
COc1cnc(-c2ccccn2)nc1NC(C)C	active: -101%
C=CC[C@H](CC(=O)N(CCO)Cc1ccccc1)C(=O)N[C@H](COC(=O)[C@@H](CC=C)CC(=O)OC(C)(C)C)Cc1ccccc1	inactive: 29.4%
Cn1c(=O)c(=O)n(C)c2cc(S(=O)(=O)N3CCN(C4CCCCC4)CC3)ccc21	inconclusive: -41%
Cc1cccc(-c2cc(C(=O)Nc3cccnc3)c3ccccc3n2)c1	inconclusive: -42.4%
Cc1nc(SC(C)C(=O)NCC2CCCO2)c2cc(-c3ccccc3)sc2n1 (configuration not stated)	active: -88.6%
Cc1onc(-c2c(Cl)cccc2Cl)c1NC(=O)NN(C)c1ccc([N+](=O)[O-])cn1	inconclusive: -50.9%
COc1ccc(C(C)=O)cc1Cn1c(C)c(C(=O)NCc2ccc3c(c2)OCO3)sc1=O	inactive: 22.6%
COc1cccc(N2C(=O)CC(N3CCC(C(N)=O)(N4CCCCC4)CC3)C2=O)c1 (configuration not stated)	inactive: 45%
Fc1ccc(Nc2nc(SCc3ccc(Cl)cc3)nc3ccccc23)cc1	inconclusive: -59%
Cc1nc(Oc2ccccc2)c2oc3ccccc3c2n1	inconclusive: -41.5%
COc1ccc(S(=O)(=O)N(Cc2nc(-c3ccccc3)no2)C2CCCCC2)cc1	inconclusive: -50.4%
COc1ccccc1C(=O)Nc1ccnn1C1CCN(C(=O)c2ccoc2)CC1	inactive: 2.92%
CCOc1cccc(NC(=O)c2ccc(S(=O)(=O)N(C)C)cc2)c1	inactive: -35.5%
COc1ccc(OC)c(NC(=O)Cc2nn(C)c(=O)c3ccccc23)c1	inconclusive: -42.8%
Cc1cccc(-n2ncc3c2CCCC3NC(=O)c2ccc[n+]([O-])c2)c1C (configuration not stated)	inconclusive: -54.3%
CN1CCN(C(=O)c2ccccc2NC(=O)c2cccc(Cl)c2)CC1	inconclusive: -46.7%
Cc1cc(=O)n2c(n1)NC(Nc1cccc(C)c1C)=NC2c1ccccc1 (configuration not stated)	inconclusive: -58.4%
S=C(NCCc1ccncc1)Nc1cccc2ccccc12	inconclusive: -46.2%

Copied from the results shown for reference:
SMILES	activity change, negative = inhibition
COc1cccc(/C=N/Nc2nc3ccccc3[nH]2)c1O	active: -99.2%
CN[C@H]1C[C@H]2c3[nH]c4ccc(-c5ccc(OC)cc5)cc4c3CCN2C(=O)[C@H]1[C@H](C)O	active: -103%

(more compounds)

SMILES	activity change, negative = inhibition
Cc1ccc(CN2CCC(C(=O)Nc3ccc(Oc4cccnc4)cc3)CC2)cc1	inconclusive: -55.1%
COC(=O)[C@@]12C[C@@H](CC(=O)NCCCCc3ccccc3)C(=O)N(Cc3ccccc3)C1=CCC(C)(C)C2	inconclusive: -45.5%
O=C(C/C(=N\NC(=O)c1ccccc1Br)C(F)(F)F)c1cccs1	inconclusive: -44.4%
CCc1ccccc1N1CC(c2nc3ccccc3n2CCCCOc2ccccc2OC)CC1=O (configuration not stated)	inconclusive: -54.4%
CC(C)(C)C1CCC(=NNC(=O)CN(c2ccccc2)S(C)(=O)=O)CC1 (configuration not stated)	inconclusive: -43.5%
COc1ccc(CCNC(=O)c2ccc(Nc3nc4ccccc4n4nnnc34)cc2)cc1OC	active: -114%
CSCCC(NC(=O)C1CCC(C)CC1)C(=O)Nc1ccc(NC(C)=O)cc1 (configuration not stated)	inconclusive: -47.3%
Cc1cc([N+](=O)[O-])nn1CC(=O)NCc1cccs1	inconclusive: -45.4%
COCCCNC(=S)Nc1cccc(SC)c1	inconclusive: -42.7%
Cc1cc(C)c(NC(=O)Cn2cc(S(=O)(=O)Cc3ccccc3F)c3ccccc32)c(C)c1	inconclusive: 0%
Cc1cccc(C)c1NC(=O)CN(C)C(=O)CSC(=S)N1CCCC1	inconclusive: -42.6%
CN1C(=O)[C@@H]2[C@@H]3C[C@@H]([C@H]4ON=C(c5ccc(Cl)cc5)[C@@H]34)[C@@H]2C1=O	inconclusive: -51.7%
COc1ccc(C(C)(NC(C)=O)c2nc(-c3cccc(C(=O)O)c3)cs2)cc1 (configuration not stated)	inactive: -20.4%
Cc1c(Cl)cccc1NC(=O)CSc1ncc2c(n1)-c1ccccc1N(C)S2(=O)=O	inactive: -31.3%
CN(CCCNC(=O)c1cc2c(Cl)nc3ccccc3c2s1)Cc1ccccc1	inconclusive: -54.6%
CC(=O)c1ccc(Nc2nc(C(N)Cc3ccc(C(F)(F)F)cc3)cs2)cc1 (configuration not stated)	active: -60.6%
COC(=O)c1cc2ccsc2n1CC(=O)Nc1cc(Cl)ccc1OC	active: -96.5%
CCCCOC(=O)c1ccc(NC(=S)NC(=O)c2c(Br)c(C)nn2C)cc1	active: -64.2%
CNC(=O)C1(C)Cc2c(-c3ccc4c(c3)OCO4)ccnc2O1 (configuration not stated)	inactive: 1.98%
Cc1nn(-c2ccccc2)c(N2CCCC2)c1/C=N/Nc1ccc(S(N)(=O)=O)cc1[N+](=O)[O-]	inconclusive: -41.2%
CC1=CC(C)CC(C)OC(=O)CC(c2ccc(O)cc2)NC(=O)C(Cc2c(Br)[nH]c3ccccc23)N(C)C(=O)C(C)NC(=O)C(C)C1 (configuration not stated)	active: -97.7%
